No constants are given. Whether binding was seen depends on the method and setting. Binding seen in cells or lysates may run through a third protein. Some binding calls cover weakened binding; strength is not graded here.
Molecular target: RICTOR (human (endogenous in U87MG, DBTRG-05MG, H4, SW1088)) (UniProt Q6R327)
Experiment: co-IP; anti-RICTOR IP from U87MG lysates, western blot; control against siRICTOR; normal, serum activation, AZD8055 and JR-AB2-011 treatment

Sequences of proteins named here, by UniProt entry; tags and fusion partners are left off.
UniProt Q6R327: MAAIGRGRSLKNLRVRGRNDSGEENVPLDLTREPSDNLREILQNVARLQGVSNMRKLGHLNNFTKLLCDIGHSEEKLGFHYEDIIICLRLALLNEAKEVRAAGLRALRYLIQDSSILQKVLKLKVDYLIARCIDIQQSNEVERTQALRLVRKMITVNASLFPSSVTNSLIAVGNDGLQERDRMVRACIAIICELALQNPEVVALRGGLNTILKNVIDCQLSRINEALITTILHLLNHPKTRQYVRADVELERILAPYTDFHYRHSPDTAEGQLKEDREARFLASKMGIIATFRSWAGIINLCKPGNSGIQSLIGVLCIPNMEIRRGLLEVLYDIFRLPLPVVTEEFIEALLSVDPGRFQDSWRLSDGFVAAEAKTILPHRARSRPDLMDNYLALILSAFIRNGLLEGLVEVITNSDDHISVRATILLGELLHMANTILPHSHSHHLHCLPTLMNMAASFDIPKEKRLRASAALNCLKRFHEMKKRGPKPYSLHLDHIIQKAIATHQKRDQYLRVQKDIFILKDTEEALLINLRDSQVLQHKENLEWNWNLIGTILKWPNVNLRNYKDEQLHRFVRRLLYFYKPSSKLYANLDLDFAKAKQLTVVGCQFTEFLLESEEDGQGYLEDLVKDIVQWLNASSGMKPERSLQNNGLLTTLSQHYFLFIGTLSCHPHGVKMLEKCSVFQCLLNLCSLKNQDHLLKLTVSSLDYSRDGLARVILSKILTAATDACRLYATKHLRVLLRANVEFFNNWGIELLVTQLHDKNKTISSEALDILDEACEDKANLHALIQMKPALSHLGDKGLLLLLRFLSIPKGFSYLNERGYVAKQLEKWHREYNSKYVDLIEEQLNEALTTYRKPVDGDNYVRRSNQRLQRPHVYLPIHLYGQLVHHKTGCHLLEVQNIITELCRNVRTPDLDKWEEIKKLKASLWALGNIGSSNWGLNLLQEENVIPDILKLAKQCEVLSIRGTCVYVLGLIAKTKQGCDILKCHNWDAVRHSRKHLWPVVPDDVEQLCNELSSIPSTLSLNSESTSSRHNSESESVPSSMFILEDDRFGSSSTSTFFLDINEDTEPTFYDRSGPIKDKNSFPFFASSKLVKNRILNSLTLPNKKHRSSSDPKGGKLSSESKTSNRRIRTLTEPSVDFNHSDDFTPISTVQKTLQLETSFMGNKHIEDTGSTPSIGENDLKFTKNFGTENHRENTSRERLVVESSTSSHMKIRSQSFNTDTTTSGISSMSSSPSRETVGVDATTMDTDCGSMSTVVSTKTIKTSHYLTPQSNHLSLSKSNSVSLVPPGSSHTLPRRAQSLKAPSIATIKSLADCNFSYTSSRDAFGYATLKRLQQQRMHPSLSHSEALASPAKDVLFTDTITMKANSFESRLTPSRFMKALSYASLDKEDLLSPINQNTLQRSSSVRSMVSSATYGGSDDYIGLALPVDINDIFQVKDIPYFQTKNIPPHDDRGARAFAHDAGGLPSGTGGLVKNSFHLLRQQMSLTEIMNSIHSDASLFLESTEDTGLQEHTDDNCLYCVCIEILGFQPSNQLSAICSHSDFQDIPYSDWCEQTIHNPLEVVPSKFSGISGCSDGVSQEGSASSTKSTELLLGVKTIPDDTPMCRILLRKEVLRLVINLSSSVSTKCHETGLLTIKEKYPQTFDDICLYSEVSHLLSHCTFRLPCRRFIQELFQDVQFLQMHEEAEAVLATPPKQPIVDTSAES
UniProt P50552: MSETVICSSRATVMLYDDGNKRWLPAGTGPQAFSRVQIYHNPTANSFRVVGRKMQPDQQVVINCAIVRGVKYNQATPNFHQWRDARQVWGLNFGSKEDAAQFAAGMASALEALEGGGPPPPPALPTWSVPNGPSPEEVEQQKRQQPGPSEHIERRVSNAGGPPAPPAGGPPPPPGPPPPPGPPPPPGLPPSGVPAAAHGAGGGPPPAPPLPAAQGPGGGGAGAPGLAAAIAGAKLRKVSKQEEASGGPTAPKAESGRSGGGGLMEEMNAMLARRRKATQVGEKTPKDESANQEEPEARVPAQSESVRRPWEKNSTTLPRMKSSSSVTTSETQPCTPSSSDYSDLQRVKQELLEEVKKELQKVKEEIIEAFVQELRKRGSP
UniProt P26038: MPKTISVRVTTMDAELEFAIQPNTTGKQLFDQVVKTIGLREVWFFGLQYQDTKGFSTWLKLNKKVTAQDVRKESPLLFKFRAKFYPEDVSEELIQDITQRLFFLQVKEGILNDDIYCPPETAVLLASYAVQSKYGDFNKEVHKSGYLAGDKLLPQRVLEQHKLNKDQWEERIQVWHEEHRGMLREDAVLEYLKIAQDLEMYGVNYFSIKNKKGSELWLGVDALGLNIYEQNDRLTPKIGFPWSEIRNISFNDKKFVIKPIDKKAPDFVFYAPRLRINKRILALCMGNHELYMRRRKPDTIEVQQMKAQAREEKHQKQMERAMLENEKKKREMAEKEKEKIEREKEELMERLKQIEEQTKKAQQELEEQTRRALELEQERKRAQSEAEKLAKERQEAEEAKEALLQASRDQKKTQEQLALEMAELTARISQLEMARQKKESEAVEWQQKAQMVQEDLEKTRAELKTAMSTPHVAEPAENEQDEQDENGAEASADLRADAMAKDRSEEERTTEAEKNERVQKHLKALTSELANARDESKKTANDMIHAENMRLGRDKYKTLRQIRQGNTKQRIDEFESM
UniProt P35579: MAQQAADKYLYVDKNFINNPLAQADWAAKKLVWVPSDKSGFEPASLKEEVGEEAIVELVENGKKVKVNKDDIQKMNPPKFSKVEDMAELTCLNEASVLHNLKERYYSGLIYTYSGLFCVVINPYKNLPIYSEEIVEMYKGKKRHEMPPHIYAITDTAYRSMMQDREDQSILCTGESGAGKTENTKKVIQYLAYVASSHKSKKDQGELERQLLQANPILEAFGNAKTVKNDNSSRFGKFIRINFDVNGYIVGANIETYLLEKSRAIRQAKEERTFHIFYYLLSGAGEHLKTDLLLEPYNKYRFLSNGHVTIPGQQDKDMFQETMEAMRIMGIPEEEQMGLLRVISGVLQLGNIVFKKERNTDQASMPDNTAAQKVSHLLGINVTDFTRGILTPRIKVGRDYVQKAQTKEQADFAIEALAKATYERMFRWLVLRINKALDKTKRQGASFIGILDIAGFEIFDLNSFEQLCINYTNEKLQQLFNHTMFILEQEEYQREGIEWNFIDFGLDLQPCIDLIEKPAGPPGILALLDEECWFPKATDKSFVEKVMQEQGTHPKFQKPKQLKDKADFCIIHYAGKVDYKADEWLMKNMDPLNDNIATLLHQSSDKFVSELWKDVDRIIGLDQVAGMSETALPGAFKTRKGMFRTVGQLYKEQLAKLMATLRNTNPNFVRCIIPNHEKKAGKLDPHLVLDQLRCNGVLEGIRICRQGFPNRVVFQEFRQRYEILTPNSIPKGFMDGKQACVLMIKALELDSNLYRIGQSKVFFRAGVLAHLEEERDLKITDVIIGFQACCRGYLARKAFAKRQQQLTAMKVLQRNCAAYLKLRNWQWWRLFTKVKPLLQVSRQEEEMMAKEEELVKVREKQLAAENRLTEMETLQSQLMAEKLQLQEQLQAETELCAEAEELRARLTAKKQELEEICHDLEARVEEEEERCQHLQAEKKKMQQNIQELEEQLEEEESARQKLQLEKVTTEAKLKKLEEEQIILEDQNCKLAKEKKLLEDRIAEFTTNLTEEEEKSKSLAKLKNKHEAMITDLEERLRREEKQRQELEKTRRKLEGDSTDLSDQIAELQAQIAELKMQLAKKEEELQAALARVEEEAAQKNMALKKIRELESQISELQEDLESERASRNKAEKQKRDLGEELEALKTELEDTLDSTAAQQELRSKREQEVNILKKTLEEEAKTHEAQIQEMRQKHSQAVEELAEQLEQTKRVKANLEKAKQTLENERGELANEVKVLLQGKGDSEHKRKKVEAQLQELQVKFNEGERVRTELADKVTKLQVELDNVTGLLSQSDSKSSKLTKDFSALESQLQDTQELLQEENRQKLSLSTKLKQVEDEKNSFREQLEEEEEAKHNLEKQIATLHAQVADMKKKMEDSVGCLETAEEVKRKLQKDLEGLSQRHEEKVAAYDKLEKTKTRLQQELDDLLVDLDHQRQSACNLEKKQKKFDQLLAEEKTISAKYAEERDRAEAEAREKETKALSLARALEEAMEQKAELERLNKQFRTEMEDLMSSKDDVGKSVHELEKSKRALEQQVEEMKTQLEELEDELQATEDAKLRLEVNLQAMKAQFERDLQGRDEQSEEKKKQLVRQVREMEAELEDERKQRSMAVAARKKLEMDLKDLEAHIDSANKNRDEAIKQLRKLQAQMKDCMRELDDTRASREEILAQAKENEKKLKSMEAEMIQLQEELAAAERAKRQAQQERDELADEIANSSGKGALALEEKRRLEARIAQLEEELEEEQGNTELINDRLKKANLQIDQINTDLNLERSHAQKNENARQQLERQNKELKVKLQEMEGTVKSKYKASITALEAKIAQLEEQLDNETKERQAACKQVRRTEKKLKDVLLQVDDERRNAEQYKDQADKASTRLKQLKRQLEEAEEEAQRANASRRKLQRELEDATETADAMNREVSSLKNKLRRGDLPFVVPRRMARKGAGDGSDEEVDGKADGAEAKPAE

binding	Substance
binds	vasodilator-stimulated phosphoprotein (VASP) (from UniProt P50552 1-380)
binds	moesin (MSN) (from UniProt P26038 1-577)
binds	myosin-9 (MYH9) (from UniProt P35579 1-1960)

Reference: PMC10148843
